Source: publication PMC5458252, “Niclosamide is a potential therapeutic for familial adenomatosis polyposis by disrupting Axin-GSK3 interaction” (Oncotarget, 2017)
No constants are given. Whether binding was seen depends on the method and setting. Binding seen in cells or lysates may run through a third protein. Some binding calls cover weakened binding; strength is not graded here.

Protein sequences, listed by entry. Tags and fused reporters are not part of them.
UniProt Q9Y2T1: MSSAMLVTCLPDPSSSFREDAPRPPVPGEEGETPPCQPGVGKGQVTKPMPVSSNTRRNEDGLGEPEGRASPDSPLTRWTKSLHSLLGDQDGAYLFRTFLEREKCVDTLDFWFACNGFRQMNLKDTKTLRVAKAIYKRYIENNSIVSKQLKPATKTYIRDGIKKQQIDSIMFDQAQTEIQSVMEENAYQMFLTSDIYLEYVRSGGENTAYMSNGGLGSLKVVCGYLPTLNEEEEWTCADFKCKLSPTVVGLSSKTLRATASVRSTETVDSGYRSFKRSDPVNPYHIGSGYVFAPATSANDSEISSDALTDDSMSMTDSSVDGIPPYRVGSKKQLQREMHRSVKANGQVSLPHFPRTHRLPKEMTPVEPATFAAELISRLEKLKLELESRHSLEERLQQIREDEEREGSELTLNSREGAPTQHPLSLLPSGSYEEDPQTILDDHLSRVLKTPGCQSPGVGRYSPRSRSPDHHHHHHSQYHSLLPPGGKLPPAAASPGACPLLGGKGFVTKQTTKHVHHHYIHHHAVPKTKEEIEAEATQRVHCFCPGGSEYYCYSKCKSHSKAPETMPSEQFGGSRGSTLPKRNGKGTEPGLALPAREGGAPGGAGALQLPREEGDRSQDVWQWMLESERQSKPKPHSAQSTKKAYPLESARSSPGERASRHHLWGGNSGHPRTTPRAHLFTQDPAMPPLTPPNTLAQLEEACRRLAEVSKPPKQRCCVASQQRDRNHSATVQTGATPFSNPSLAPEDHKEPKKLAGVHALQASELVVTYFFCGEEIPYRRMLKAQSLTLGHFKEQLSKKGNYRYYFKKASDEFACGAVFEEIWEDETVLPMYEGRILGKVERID
UniProt P49841: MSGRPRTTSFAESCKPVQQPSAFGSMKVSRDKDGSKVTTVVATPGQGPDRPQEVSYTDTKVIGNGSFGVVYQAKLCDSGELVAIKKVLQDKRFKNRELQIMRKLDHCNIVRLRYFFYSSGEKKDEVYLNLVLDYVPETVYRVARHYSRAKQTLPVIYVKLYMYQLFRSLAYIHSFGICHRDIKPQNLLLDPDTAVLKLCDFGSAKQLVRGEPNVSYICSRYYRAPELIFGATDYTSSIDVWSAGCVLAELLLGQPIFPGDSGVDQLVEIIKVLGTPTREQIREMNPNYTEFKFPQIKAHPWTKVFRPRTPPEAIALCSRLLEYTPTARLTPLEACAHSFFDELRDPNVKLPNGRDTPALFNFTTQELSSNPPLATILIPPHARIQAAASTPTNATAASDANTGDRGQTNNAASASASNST

Tests used:
[1] = biological target: His-tagged Axin2 (full-length), transfected in 293 cells (UniProt Q9Y2T1); test: pull-down; 293 cells transfected with His-tagged Axin2 and treated with increasing doses of niclosamide for 8 h; Ni-NTA bead precipitation of the lysate (called immunoprecipitation), immunoblot for GSK3
[2] = biological target: His-tagged Axin2, doxycycline-inducible, stably transfected in MCF-7 cells (UniProt Q9Y2T1); test: pull-down; whole cell Triton X-100 lysates of MCF-7 cells with inducible His-tagged Axin2 incubated with Ni-NTA beads with different doses of niclosamide; immunoblot for GSK3

binding [1]: binds
binding [2]: binds
Substance: GSK3 (endogenous, detected by immunoblot) (from UniProt P49841 1-420)
